Experimental data: patent US8030352B2, “Method of producing retinyl esters” (Unilever Home & Personal Care USA, division of Conopco, Inc., priority 2002, dated 2011)
At least one structure is not confirmed: it was looked up by name or label, or the drawing left a doubt.

Assay: Stability of retinyl esters in the fluid oil phase of a moisturising cream formulation
Format: physicochemical
Details: 0.75% level, after twenty eight days at 50° C.

SMILES: CCCCC/C=C\C/C=C\CCCCCCCC(=O)OC/C=C(C)/C=C/C=C(C)/C=C/C1=C(C)CCCC1(C)C [Retinyl linoleate (NS), Retinyl Linoleate]
- % recovery: 72.6%
